The target of this assay is 3FLAG-tagged OPTN (UniProt Q96CV9). As to the kind of experiment: co-IP; cells (Parkin-AAVS-HeLa, or OPTN-AZI2-TBKBP1 TKO HeLa with Parkin) stably expressing 3FLAG- and 3HA-tagged proteins, with or without valinomycin 30 min; cross-linked with 1 mM DSP in PBS, room temperature, 30 min; solubilised in 1% Triton X-100, 50 mM Tris-HCl pH 7.5, 150 mM NaCl; anti-FLAG (DDDDK) agarose, 4 °C, 1 h; immunoblot. (In western blotting, separated proteins are transferred to a membrane and probed.)

Sequences of proteins named here, by UniProt entry; tags and fusion partners are left off.
UniProt Q96CV9: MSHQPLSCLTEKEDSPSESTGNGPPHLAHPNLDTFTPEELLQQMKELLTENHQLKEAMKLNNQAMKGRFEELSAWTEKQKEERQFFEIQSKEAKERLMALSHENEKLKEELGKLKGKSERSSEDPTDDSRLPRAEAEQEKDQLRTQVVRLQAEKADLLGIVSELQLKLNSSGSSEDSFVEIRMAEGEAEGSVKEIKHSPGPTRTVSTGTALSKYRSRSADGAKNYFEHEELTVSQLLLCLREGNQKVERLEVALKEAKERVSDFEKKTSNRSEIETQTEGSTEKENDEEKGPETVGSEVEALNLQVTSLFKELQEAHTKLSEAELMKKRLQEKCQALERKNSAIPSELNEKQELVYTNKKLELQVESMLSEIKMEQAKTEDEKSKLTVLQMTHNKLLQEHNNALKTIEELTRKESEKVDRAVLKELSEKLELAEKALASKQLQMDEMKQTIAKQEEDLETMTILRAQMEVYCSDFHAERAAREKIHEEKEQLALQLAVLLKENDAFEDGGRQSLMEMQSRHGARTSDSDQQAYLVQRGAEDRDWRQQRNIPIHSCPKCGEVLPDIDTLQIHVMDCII
UniProt A7MCY6: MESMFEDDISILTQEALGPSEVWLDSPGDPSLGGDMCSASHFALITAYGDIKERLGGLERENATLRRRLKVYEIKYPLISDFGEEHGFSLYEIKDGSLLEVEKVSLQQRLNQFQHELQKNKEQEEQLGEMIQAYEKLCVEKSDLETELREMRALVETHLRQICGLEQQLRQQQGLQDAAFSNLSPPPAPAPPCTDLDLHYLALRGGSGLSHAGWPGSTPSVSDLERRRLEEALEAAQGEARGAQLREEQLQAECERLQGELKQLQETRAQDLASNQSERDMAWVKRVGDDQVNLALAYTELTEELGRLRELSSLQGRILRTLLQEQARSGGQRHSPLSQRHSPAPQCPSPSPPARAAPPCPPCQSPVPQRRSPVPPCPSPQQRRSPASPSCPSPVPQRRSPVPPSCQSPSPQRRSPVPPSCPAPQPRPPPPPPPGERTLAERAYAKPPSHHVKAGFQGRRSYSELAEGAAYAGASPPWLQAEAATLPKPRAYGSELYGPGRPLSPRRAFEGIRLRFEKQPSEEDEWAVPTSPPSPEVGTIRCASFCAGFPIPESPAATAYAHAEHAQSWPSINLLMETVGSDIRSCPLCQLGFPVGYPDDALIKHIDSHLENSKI

The values below come from article PMC11490886.

These are yes or no findings as the source states them, for the method shown. Binding seen in cells or lysates may run through a third protein. Some binding calls cover weakened binding; strength is not graded here.

On to “3HA-tagged TBKBP1 (from UniProt A7MCY6 1-615)”, for which the binding entry was “no binding”.

B1: TANK-binding kinase 1 (TBK1), endogenous (enzyme, UniProt Q9UHD2 1-729)
chain: MQSTSNHLWLLSDILGQGATANVFRGRHKKTGDLFAIKVFNNISFLRPVDVQMREFEVLKKLNHKNIVKLFAIEEETTTRHKVLIMEFCPCGSLYTVLEEPSNAYGLPESEFLIVLRDVVGGMNHLRENGIVHRDIKPGNIMRVIGEDGQSVYKLTDFGAARELEDDEQFVSLYGTEEYLHPDMYERAVLRKDHQKKYGATVDLWSIGVTFYHAATGSLPFRPFEGPRRNKEVMYKIITGKPSGAISGVQKAENGPIDWSGDMPVSCSLSRGLQVLLTPVLANILEADQEKCWGFDQFFAETSDILHRMVIHVFSLQQMTAHKIYIHSYNTATIFHELVYKQTKIISSNQELIYEGRRLVLEPGRLAQHFPKTTEENPIFVVSREPLNTIGLIYEKISLPKVHPRYDLDGDASMAKAITGVVCYACRIASTLLLYQELMRKGIRWLIELIKDDYNETVHKKTEVVITLDFCIRNIEKTVKVYEKLMKINLEAAELGEISDIHTKLLRLSSSQGTIETSLQDIDSRLSPGGSLADAWAHQEGTHPKDRNVEKLQVLLNCMTEIYYQFKKDKAERRLAYNEEQIHKFDKQKLYYHATKAMTHFTDECVKKYEAFLNKSEEWIRKMLHLRKQLLSLTNQCFDIEEEVSKYQEYTNELQETLPQKMFTASSGIKHTMTPIYPSSNTLVEMTLGMKKLKEEMEGVVKELAENNHILERFGSLTMDGGLRNVDCL
With B1, the binding result is recorded as “binds”.
